Where “and” joins values, the source holds several entries; their conditions need not be identical. Equal entries are not always repeated. The list shows a part of the results. For some assays here: The exact form of the protein is not confirmed.

Protein sequences, listed by entry. Tags and fused reporters are not part of them. Lines headed by an entry give the natural chain unless they say otherwise; changes in a name come on top.
UniProt P49796: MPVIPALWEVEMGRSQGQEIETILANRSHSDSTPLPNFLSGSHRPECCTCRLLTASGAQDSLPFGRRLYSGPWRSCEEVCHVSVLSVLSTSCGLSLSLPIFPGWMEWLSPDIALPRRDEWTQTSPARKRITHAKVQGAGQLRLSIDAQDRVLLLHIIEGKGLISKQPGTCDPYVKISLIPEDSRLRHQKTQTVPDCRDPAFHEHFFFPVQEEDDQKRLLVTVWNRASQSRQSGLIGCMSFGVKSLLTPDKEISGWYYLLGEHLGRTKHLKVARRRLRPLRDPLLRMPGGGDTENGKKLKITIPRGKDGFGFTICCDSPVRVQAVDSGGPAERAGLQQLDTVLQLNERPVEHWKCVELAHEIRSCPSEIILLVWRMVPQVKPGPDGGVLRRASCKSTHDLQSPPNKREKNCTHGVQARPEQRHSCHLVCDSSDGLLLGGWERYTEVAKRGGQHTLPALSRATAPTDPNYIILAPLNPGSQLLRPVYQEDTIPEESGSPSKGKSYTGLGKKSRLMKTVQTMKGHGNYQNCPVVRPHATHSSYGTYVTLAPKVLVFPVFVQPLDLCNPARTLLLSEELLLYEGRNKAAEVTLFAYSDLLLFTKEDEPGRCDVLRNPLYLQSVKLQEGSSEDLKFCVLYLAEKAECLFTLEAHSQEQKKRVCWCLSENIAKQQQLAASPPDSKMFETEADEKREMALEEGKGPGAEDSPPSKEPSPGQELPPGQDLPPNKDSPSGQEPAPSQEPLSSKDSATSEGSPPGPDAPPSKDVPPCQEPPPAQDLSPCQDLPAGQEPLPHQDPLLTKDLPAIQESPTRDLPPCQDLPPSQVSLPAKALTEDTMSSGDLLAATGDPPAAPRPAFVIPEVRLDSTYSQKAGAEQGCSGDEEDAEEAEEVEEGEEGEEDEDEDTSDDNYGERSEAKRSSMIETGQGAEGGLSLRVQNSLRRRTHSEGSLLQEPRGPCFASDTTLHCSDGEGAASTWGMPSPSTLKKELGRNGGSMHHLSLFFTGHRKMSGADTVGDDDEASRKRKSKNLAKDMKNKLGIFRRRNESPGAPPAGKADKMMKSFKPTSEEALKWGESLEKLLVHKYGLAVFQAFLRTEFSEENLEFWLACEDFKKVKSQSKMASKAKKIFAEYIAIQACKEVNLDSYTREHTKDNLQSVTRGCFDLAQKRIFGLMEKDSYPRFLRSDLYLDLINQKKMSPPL

Consider one sequence from article PMC5996148.

What all share (experiment): protein microarray (ProtoArray v5.0), streptavidin-Alexa Fluor 647
Holding throughout (conditions): 3'-biotin; 20 mM Tris (pH 7.5), 5 mM MgCl2, 100 mM KCl, 0.1% Tween-20, A/T-rich and random oligonucleotide blockers; temperature not stated; high values mean tight binding

Assay [1] deals with RBKS (human).
Assay [2] concerns RBM33 (human).
Assay [3] concerns RBM9 (human).
In assay [4] the test system is RCP9 (human).
The subject of assay [5] is RCSD1 (human).
Assay [6] has as its system RCVRN (human).
In assay [7] the test system is RD3 (human).
For assay [8], the system named is RDH11 (human).
For assay [9], the system named is RDH12 (human).
Assay [10] concerns RDHE2 (human).
Assay [11] has as its system REEP6 (human).
Assay [12] concerns REG3A (human).
In assay [13] the test system is RELA (human).
The test system of assay [14] is RELL2 (human).
Assay [15] has as its system RFC5 (human).
Assay [16] concerns RFPL1 (human).
In assay [17] the test system is RFPL3 (human).
For assay [18], the system named is RGS10 (human).
Assay [19] addresses RGS3 (UniProt P49796).
The subject of assay [20] is RGS5 (human).

Consider “GGGAGGCTGAGGCAGG [G4-1 biotinylated (PQS2)]”, for which the binding signal in assay [1] was -0.285 z-score; in assay [2] it was -0.332 z-score; in [3], -0.342 z-score; in assay [4], -0.341 z-score; in [5] it was -0.346 z-score; in assay [6], -0.324 z-score. Further, the binding signal was -0.303 z-score in assay [7]; -0.289 z-score and -0.318 z-score in assay [8]; -0.381 z-score in assay [9]; -0.332 z-score in [10]; -0.34 z-score in assay [11]; -0.276 z-score in assay [12]. In addition, the binding signal in assay [13] was -0.308 z-score; in [14], -0.299 z-score; in assay [15] it was -0.324 z-score; in assay [16], -0.319 z-score; in assay [17], -0.331 z-score; in assay [18], -0.352 z-score and -0.34 z-score. Further, the binding signal in assay [19] was 7.5 z-score; in assay [20] it was -0.313 z-score.
